Laboratory results reported in the supplement of paper PMC8866396.
± gives the standard deviation of the averaged measurements. This is one part of the list. Most values lie within the scatter of the assay; repeated measurements hardly agree.

What was measured:
[1] = test system: IL-6-GFP PC-9GR; assay: IL-6-GFP fluorescence relative to DMSO control (fraction of control); higher = more IL-6-GFP expression; details: compound concentration: 10 uM; treatment time: 48 h
Protocol: (§1)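 IL-6-GFP-overexpressing PC-9 and PC-9GR EGFR-mutant lung cancer cells (3000 cells/well, 96-well) were treated for 48 h with each compound of the Selleck L2000 library at 10 uM. IL-6-GFP fluorescence was read on a high-content screening system, and viability by CCK-8 absorbance on a parallel plate set. Each value was normalised as compound well / DMSO control well; two independent replicates.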

[2] = test system: IL-6-GFP PC-9; assay: as above; details: compound concentration: 10 uM; treatment time: 48 h
Protocol: as §1

Compound: CCC(C)C(=O)OC1CC(O)C=C2C=CC(C)C(CCC(O)CC(O)CC(=O)O)C21 (centres undefined) [Pravastatin]
- IL-6-GFP fluorescence [1]: 0.881 ± 0.049
- IL-6-GFP fluorescence [2]: 0.775 ± 0.049

Compound: COc1cc2c(Nc3ccc(Br)cc3F)ncnc2cc1OCC1CCN(C)CC1 [Vandetanib (ZD6474)]
- IL-6-GFP fluorescence [1]: 0.413 ± 0.29
- IL-6-GFP fluorescence [2]: 0.45 ± 0.19

Compound: CCCCCCCCc1ccc(CCC(N)(CO)CO)cc1 [Fingolimod]
- IL-6-GFP fluorescence [1]: 0.973 ± 0.11
- IL-6-GFP fluorescence [2]: 0.812 ± 0.029

Compound: O=C(O)CCCN1CCC(OC(c2ccc(Cl)cc2)c2ccccn2)CC1.O=S(=O)(O)c1ccccc1 (centres undefined) [Bepotastine Besilate]
- IL-6-GFP fluorescence [1]: 0.873 ± 0.017
- IL-6-GFP fluorescence [2]: 0.853 ± 0.27

Compound: N#CC1(c2ccc(NC(=O)c3cccnc3NCc3ccncc3)cc2)CCCC1 [Apatinib]
- IL-6-GFP fluorescence [1]: 1.06 ± 0.45
- IL-6-GFP fluorescence [2]: 0.905 ± 0.033

Compound: C=CC1CC1(NC(=O)C1CC(Oc2ncc(OC)c3ccc(Cl)cc23)CN1C(=O)C(NC(=O)OC(C)(C)C)C(C)(C)C)C(=O)NS(=O)(=O)C1CC1 (centres undefined) [Asunaprevir]
- IL-6-GFP fluorescence [1]: 0.726 ± 0.035
- IL-6-GFP fluorescence [2]: 0.9597 ± 0.00098

Compound: Nc1nc(Cl)nc2c1ncn2C1CC(O)C(CO)O1 (centres undefined) [Cladribine]
- IL-6-GFP fluorescence [1]: 1.09 ± 0.17
- IL-6-GFP fluorescence [2]: 1.03 ± 0.091

Compound: COC1CC2CCC(C)C(O)(O2)C(=O)C(=O)N2CCCCC2C(=O)OC(C(C)CC2CCC(OCCO)C(OC)C2)CC(=O)C(C)/C=C(\C)C(O)C(OC)C(=O)C(C)CC(C)/C=C/C=C/C=C/1C (centres undefined) [Everolimus (RAD001)]
- IL-6-GFP fluorescence [1]: 1.06 ± 0.011
- IL-6-GFP fluorescence [2]: 0.985 ± 0.0064

Compound: Nc1ccc(S(=O)(=O)Nc2ccnn2-c2ccccc2)cc1 [Sulfaphenazole]
- IL-6-GFP fluorescence [1]: 0.845 ± 0.041
- IL-6-GFP fluorescence [2]: 0.81 ± 0.16

Compound: CC1CC2C3CCC4=CC(=O)C=CC4(C)C3(F)C(O)CC2(C)C1C(=O)CO (centres undefined) [Desoximetasone]
- IL-6-GFP fluorescence [1]: 0.892 ± 0.076
- IL-6-GFP fluorescence [2]: 0.914 ± 0.024

Compound: Nc1cc(C(Cl)=C(Cl)Cl)c(S(N)(=O)=O)cc1S(N)(=O)=O [Clorsulon]
- IL-6-GFP fluorescence [1]: 1.11 ± 0.23
- IL-6-GFP fluorescence [2]: 0.972 ± 0.32

Compound: O=C(c1ccc(F)c(F)c1Nc1ccc(I)cc1F)N1CC(O)(C2CCCCN2)C1 (centres undefined) [Cobimetinib (GDC-0973, RG7420)]
- IL-6-GFP fluorescence [1]: 1.03 ± 0.084
- IL-6-GFP fluorescence [2]: 1.05 ± 0.034

Compound: CC(C)OC(=O)CCC/C=C\CC1C(O)CC(O)C1CCC(O)CCc1ccccc1 (centres undefined) [Latanoprost]
- IL-6-GFP fluorescence [1]: 0.432 ± 0.46
- IL-6-GFP fluorescence [2]: 0.912 ± 0.11

Compound: OCC1OC(c2ccc(F)c(Cc3cc4ccccc4s3)c2)C(O)C(O)C1O (centres undefined) [Ipragliflozin (ASP1941)]
- IL-6-GFP fluorescence [1]: 0.946 ± 0.13
- IL-6-GFP fluorescence [2]: 0.665 ± 0.32

Compound: CC#CCn1c(N2CCCC(N)C2)nc2c1c(=O)n(Cc1nc(C)c3ccccc3n1)c(=O)n2C (centres undefined) [Linagliptin]
- IL-6-GFP fluorescence [1]: 0.956 ± 0.022
- IL-6-GFP fluorescence [2]: 0.784 ± 0.064

Compound: CC1=NN(c2ccc(C)c(C)c2)C(=O)/C1=N\Nc1cccc(-c2cccc(C(=O)O)c2)c1O.NCCO.NCCO [Eltrombopag Olamine]
- IL-6-GFP fluorescence [1]: 0.28 ± 0.072
- IL-6-GFP fluorescence [2]: 0.341 ± 0.29

Compound: CC(C)Cc1ccc(C(C)C(=O)O)cc1 (centres undefined) [Ibuprofen]
- IL-6-GFP fluorescence [1]: 0.633 ± 0.21
- IL-6-GFP fluorescence [2]: 0.85 ± 0.26

Compound: OCC1OC(OCC2OC(O)C(O)C(OC3OC(CO)C(O)C(OC4OC(CO)C(O)C(OC5OC(COC6OC(CO)C(O)C(O)C6O)C(O)C(OC6OC(CO)C(O)C(O)C6O)C5O)C4O)C3O)C2O)C(O)C(O)C1O (centres undefined) [Lentinan]
- IL-6-GFP fluorescence [1]: 0.871 ± 0.065
- IL-6-GFP fluorescence [2]: 0.896 ± 0.15

Compound: CC1CC2C3CCC4=CC(=O)C=CC4(C)C3(Cl)C(O)CC2(C)C1(OC(=O)c1ccco1)C(=O)CCl (centres undefined) [Mometasone furoate]
- IL-6-GFP fluorescence [1]: 0.677 ± 0.26
- IL-6-GFP fluorescence [2]: 1.02 ± 0.28

Compound: C/C=C(/C(=C/C)c1ccc(O)cc1)c1ccc(O)cc1 [Dienestrol]
- IL-6-GFP fluorescence [1]: 0.734 ± 0.23
- IL-6-GFP fluorescence [2]: 0.89 ± 0.1

Compound: CNC(=O)c1cc(Oc2ccc(NC(=O)Nc3ccc(Cl)c(C(F)(F)F)c3)cc2)ccn1 [Sorafenib]
- IL-6-GFP fluorescence [1]: 0.872 ± 0.078
- IL-6-GFP fluorescence [2]: 0.945 ± 0.11

Compound: CC(C(=O)O)c1cccc(C(=O)c2ccccc2)c1 (centres undefined) [Ketoprofen]
- IL-6-GFP fluorescence [1]: 0.669 ± 0.17
- IL-6-GFP fluorescence [2]: 0.848 ± 0.082

Compound: O=C1OC(OC(=O)c2cccnc2Nc2cccc(C(F)(F)F)c2)c2ccccc21 (centres undefined) [Talniflumate]
- IL-6-GFP fluorescence [1]: 0.917 ± 0.039
- IL-6-GFP fluorescence [2]: 0.8379 ± 0.003

Compound: CCCCOc1ccc(CC(=O)NO)cc1 [Bufexamac]
- IL-6-GFP fluorescence [1]: 0.93 ± 0.12
- IL-6-GFP fluorescence [2]: 0.908 ± 0.32

Compound: O=C(O)c1ccccc1OP(=O)(O)O [Fosfosal]
- IL-6-GFP fluorescence [1]: 0.85 ± 0.096
- IL-6-GFP fluorescence [2]: 0.83 ± 0.062

Compound: Cc1ccc(C2OC(CO)C(O)C(O)C2O)cc1Cc1ccc(-c2ccc(F)cc2)s1 (centres undefined) [Canagliflozin]
- IL-6-GFP fluorescence [1]: 0.883 ± 0.14
- IL-6-GFP fluorescence [2]: 0.9 ± 0.25

Compound: CC(=O)c1c(C)c2cnc(Nc3ccc(N4CCNCC4)cn3)nc2n(C2CCCC2)c1=O.O=S(=O)(O)CCO
- IL-6-GFP fluorescence [1]: 0.785 ± 0.039
- IL-6-GFP fluorescence [2]: 1.05 ± 0.08
